“And” between values parts separate entries of the source, which are not always exact repeats. Identical values can stand only once. Some of the results follow. Further columns of the screen follow, without active or inactive calls. Compounds called inactive in the main read-out are mostly missing here. The note in brackets gives the kind of curve behind each potency; many fits are weak.
Assay: qHTS Assay to Find Inhibitors of Chronic Active B-Cell Receptor Signaling
Conditions: ABC-DLBCL IkBa-CBG/CBR reporter, luminescence ratio (green luciferase fused to IkBa over red control in TMD8 lymphoma cells), 4 h
Procedure, shortened: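 TMD8 ABC-DLBCL cells carrying doxycycline-inducible green luciferase fused to IkappaBalpha plus unfused red luciferase were exposed to compounds (up to 46 uM) for 4 hrs at 37C. Activity came from the overlap-corrected green/red luminescence ratio.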

[1] = measured here: CBR red luminescence, cell number
[2] = measured here: IkBa-CBG green luminescence

## CCCCCOc1ccc(CSC2=NCCN2)cc1[N+](=O)[O-]
[1]
  AC50: 29.1 µM [falling, single point]

## COc1ccccc1/C=C1\SC(N2CCC(C)CC2)=NC1=O
[1]
  AC50: 35.5 µM [falling, partial curve, poor fit]

## COC(CN1C(=O)C(=O)/C(=C(/O)c2ccccc2)C1c1ccccn1)OC (configuration not stated)
[1]
  AC50: 1 µM [rising, full curve, poor fit]

## COc1ccc(C(=O)N2CCNC(=O)C2)cc1S(=O)(=O)Nc1ccc(Br)cc1
[1]
  AC50: 23.1 µM [rising, partial curve]
[2]
  AC50: 23.1 µM [falling, partial curve, poor fit]

## CC(=O)N1CCn2c3c(c(=O)c4cc(C)ccc42)CCC31 (configuration not stated)
[1]
  AC50: 32.6 µM [falling, single point]

## COc1ccc(NC(=S)c2ccc(N(C)C)cc2)cc1
[1]
  AC50: 18.4 µM [rising, single point]

## COCCNC(=O)CSc1ccc(Cl)cc1
[1]
  AC50: 3.16 µM [rising, partial curve]

## Cn1c(=O)c2c(nc(N/N=C/c3ccco3)n2C)n(C)c1=O
[1]
  AC50: 8.91 µM [falling, partial curve]

## CCN1CCN(c2oc(-c3ccco3)nc2C#N)CC1
[1]
  AC50: 31.6 µM [rising, single point]

## CCOc1ccccc1NC(=O)Nc1cc(C(=O)O)ccc1C
[1]
  AC50: 10 µM [rising, partial curve, poor fit]

## CC12CC3(C)CC(C)(C1)CC(NC(=O)N1CCCC1)(C2)C3
[1]
  AC50: 4.11 µM [falling, single point]

## COC(=O)c1c(-c2cccc(C)c2)csc1NC(=O)C1CCCO1 (configuration not stated)
[1]
  AC50: 2.82 µM [rising, partial curve, poor fit]

## O=C(O)c1ccc(CSc2n[nH]c(-c3ccco3)n2)cc1
[1]
  AC50: 10 µM [falling, partial curve, poor fit]

## COCC(=O)Nc1cc(C(=O)Nc2cccc(C)c2C)ccc1Cl
[1]
  AC50: 14.6 µM [falling, partial curve, poor fit]

## COCCNC(=O)c1c[nH]c2ccc(S(=O)(=O)N3CCc4ccccc43)cc2c1=O
[1]
  AC50: 22.4 µM [falling, partial curve, poor fit]

## Cc1ccc(CNC(=O)Cn2nnc3ccccc3c2=O)cc1
[1]
  AC50: 20 µM [falling, single point]

## O=C(Nc1cccc(-c2csc(-c3ccccc3)n2)c1)c1cccs1
[1]
  AC50: 18.4 µM [falling, partial curve, poor fit]

## Cc1ccc(NC(=O)COC(=O)C2=COCCO2)c([N+](=O)[O-])c1
[1]
  AC50: 22.4 µM [rising, single point]

## N#Cc1cccc(NC(=O)COC(=O)c2ccccc2C(=O)c2ccc(Cl)c([N+](=O)[O-])c2)c1
[1]
  AC50: 7.31 µM [falling, partial curve]
[2]
  AC50: 5.17 µM [rising, partial curve, poor fit]

## O=C(CCS(=O)(=O)c1ccccc1)Nc1cccc2c1C(=O)NC2=O
[1]
  AC50: 5.62 µM [rising, partial curve]

## CCCCC(=O)Nc1ccc(C(=O)Nc2cc(C(F)(F)F)ccc2Cl)cc1
[1]
  AC50: 6.51 µM [rising, single point]

## CCOC(=O)c1c(C)c(C(=O)NC(C)COC)c(C)n1C (configuration not stated)
[1]
  AC50: 29.1 µM [rising, single point]

## Cc1ccccc1C(=O)OC1OC(=O)C(Cl)=C1Nc1ccccc1 (configuration not stated)
[1]
  AC50: 25.1 µM [falling, single point]

## CCOc1ccc(-n2nc3cc(C)c(N)cc3n2)cc1
[1]
  AC50: 3.16 µM [rising, partial curve, poor fit]

## CC(=O)N(Cc1ccccc1)c1nc(-c2ccccc2)cs1
[1]
  AC50: 8.91 µM [rising, partial curve]

## COc1ccc(C(CNC(=O)COc2cccc(C(F)(F)F)c2)N2CCCC2)cc1 (configuration not stated)
[1]
  AC50: 7.31 µM [falling, full curve, poor fit]

## CC(C)Cc1ccc(C(=O)NCc2ccc3c(c2)OCO3)o1
[1]
  AC50: 35.5 µM [falling, single point]

## N#Cc1ccc(OCc2ccc(C(=O)O)o2)cc1
[1]
  AC50: 17.8 µM [falling, single point]

## Cn1c(=O)c2c(n(C)c1=O)=NC1(CCCCC1)ON=2
[1]
  AC50: 0.13 µM [rising, full curve, poor fit]

## O=C1CC(c2ccccc2Cl)=NN(c2ncnc3ccccc23)C1=O
[1]
  AC50: 7.94 µM [falling, partial curve]

## C=CCC[C@H](Cc1ccc(F)cc1)C(=O)OC[C@H](C)NC(=O)[C@H](CC=C)CC(=O)N(CCO)Cc1ccccc1
[1]
  AC50: 20.6 µM [falling, partial curve, poor fit]

## Cc1cc(C(=O)Nc2c(C)n(C)n(-c3ccccc3)c2=O)cs1
[1]
  AC50: 0.0116 µM [rising, full curve, poor fit]

## CCN(CC)CCn1c(=S)[nH]c2ncccc2c1=O
[1]
  AC50: 2.31 µM [rising, single point]

## COc1cccc(-c2nc(CS(=O)CC(=O)NC3CCCC3)c(C)o2)c1 (configuration not stated)
[1]
  AC50: 29.1 µM [rising, single point]

## CCn1ncc(Br)c1C(=O)Nc1ccc(C(C)C)cc1
[1]
  AC50: 3.16 µM [rising, full curve, poor fit]

## O=C(Nc1nnc(-c2ccccc2Cl)o1)c1cccnc1
[1]
  AC50: 18.4 µM [falling, partial curve, poor fit]

## O=C(NCCC1=CCCCC1)c1cnsn1
[1]
  AC50: 8.2 µM [rising, partial curve, poor fit]

## CC#CCN(CC#CC)S(=O)(=O)c1ccc(-n2cnnn2)c(OC)c1
[1]
  AC50: 17.8 µM [rising, partial curve, poor fit]

## CCCOc1cccc(-c2cc(-c3n[nH]c(=S)n3CC)c3ccccc3n2)c1
[2]
  AC50: 14.1 µM [rising, partial curve, poor fit]

## COc1ccccc1N(C)S(=O)(=O)c1ccc(C(=O)N2CCCc3ccccc32)cc1
[1]
  AC50: 10 µM [falling, partial curve, poor fit]
[2]
  AC50: 12.6 µM [rising, partial curve, poor fit]

## O=C(O)C[C@@H]1C(=O)O[C@@H]2C(COC(=O)c3cc(O)c(O)c(O)c3)O[C@@H](OC(=O)c3cc(O)c(O)c(O)c3)[C@@H](OC(=O)c3cc(O)c(O)c4c3[C@H]1[C@H](O)C(=O)O4)[C@H]2OC(=O)c1cc(O)c(O)c(O)c1 (some centres not stated)
[1]
  AC50: 20 µM [falling, single point]

## CCOC(=O)C(C(=O)OCC)C(C(=O)OCC)N1CCOCC1 (configuration not stated)
[1]
  AC50: 0.517 µM [falling, full curve, poor fit]

## CC(C)(C)CC(C)(C)c1ccc(OCCOCC[N+](C)(C)Cc2ccccc2)cc1
[1]
  AC50: 25.9 µM [falling, partial curve, poor fit]
[2]
  AC50: 32.6 µM [rising, partial curve, poor fit]

## Cc1ccc([C@H]2C(C#N)=C(N)Oc3cc(C)oc(=O)c32)o1
[1]
  AC50: 12.6 µM [falling, single point]
[2]
  AC50: 15.8 µM [rising, partial curve, poor fit]

## Cc1cc(NNC(=O)c2ccccc2)nc(NNC(=O)c2ccccc2)n1
[1]
  AC50: 20 µM [falling, single point]

## CCOCCCNC(=O)CN1C(=O)/C(=C\c2ccc(C)cc2)Sc2ccccc21
[1]
  AC50: 14.6 µM [rising, partial curve]

## CN(Cc1ccco1)Cc1ccc(O)c2ncccc12
[1]
  AC50: 14.6 µM [rising, partial curve]
[2]
  AC50: 29.1 µM [falling, single point] and 18.4 µM [falling, single point]

## COC(=O)c1ccc(NC(=S)NN2CCOCC2)cc1
[1]
  AC50: 1.41 µM [falling, full curve, poor fit]

## COc1ccc(S(=O)(=O)NC(C)C(=O)NCCN2CCOCC2)cc1Cl (configuration not stated)
[1]
  AC50: 0.631 µM [rising, full curve, poor fit]

## COc1ccccc1N=C(C)C1=C(O)COC1=O
[1]
  AC50: 16.4 µM [falling, partial curve, poor fit]

## Cc1ccc(NC(=O)COC(=O)CNC(=O)C2CCCCC2)cc1S(=O)(=O)N(C)C
[1]
  AC50: 23.1 µM [rising, single point]

## C=CC(C)(C)c1c2occc2c(O)c2ccc(=O)oc12
[1]
  AC50: 29.1 µM [falling, single point]

## CN(C)CCOC(C1CCCCC1)C1CCCCC1
[1]
  AC50: 0.0517 µM [falling, full curve, poor fit]

## CCN(CC(=O)Nc1c(F)cccc1F)C(=O)CNC(=O)c1sc2ccccc2c1Cl
[1]
  AC50: 1.03 µM [rising, full curve, poor fit]

## Cc1nc(SCC#N)c2c3c(sc2n1)CCC3
[1]
  AC50: 9.2 µM [rising, single point]

## CCCS(=O)(=O)c1ccc(COC(=O)c2cccc(NC(=O)C(C)C)c2)cc1
[1]
  AC50: 17.8 µM [falling, single point]

## O=C(Nc1ccc(-c2cccc(F)c2)cc1)C1CCCN(Cc2ccccn2)C1 (configuration not stated)
[1]
  AC50: 35.5 µM [falling, single point]

## CC(CNc1ccc([N+](=O)[O-])cc1)NC(=O)c1ccccc1Br (configuration not stated)
[1]
  AC50: 4.11 µM [rising, single point]

## Cc1cc(N2CCC(C)CC2)n2ncc(-c3ccccc3)c2n1
[1]
  AC50: 0.447 µM [rising, full curve, poor fit]

## CN1OC(COC(=O)c2ccccc2)CC1c1ccccc1 (configuration not stated)
[1]
  AC50: 3.98 µM [rising, partial curve, poor fit]

## CCC(Oc1ccccc1)C(=O)Nc1ncc([N+](=O)[O-])s1 (configuration not stated)
[1]
  AC50: 0.141 µM [rising, full curve, poor fit]
